Paper PMC10814688
These are yes or no findings as the source states them, for the method shown. Binding seen in cells or lysates may run through a third protein. Some binding calls cover weakened binding; strength is not graded here.

Amino acid sequences for entries named in this document (tags omitted).
UniProt Q8BWG8: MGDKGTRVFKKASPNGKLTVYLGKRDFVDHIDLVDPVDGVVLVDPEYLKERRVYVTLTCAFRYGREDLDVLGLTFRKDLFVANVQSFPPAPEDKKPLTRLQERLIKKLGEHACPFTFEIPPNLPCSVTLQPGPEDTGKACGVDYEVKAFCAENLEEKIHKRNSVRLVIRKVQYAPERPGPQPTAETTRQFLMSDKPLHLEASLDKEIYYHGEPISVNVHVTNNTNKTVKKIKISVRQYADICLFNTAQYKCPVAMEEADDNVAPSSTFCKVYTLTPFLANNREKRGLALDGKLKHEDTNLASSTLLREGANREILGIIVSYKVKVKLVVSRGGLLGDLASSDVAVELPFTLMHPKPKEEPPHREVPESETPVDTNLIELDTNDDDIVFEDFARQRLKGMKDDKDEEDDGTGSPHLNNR
UniProt P33766: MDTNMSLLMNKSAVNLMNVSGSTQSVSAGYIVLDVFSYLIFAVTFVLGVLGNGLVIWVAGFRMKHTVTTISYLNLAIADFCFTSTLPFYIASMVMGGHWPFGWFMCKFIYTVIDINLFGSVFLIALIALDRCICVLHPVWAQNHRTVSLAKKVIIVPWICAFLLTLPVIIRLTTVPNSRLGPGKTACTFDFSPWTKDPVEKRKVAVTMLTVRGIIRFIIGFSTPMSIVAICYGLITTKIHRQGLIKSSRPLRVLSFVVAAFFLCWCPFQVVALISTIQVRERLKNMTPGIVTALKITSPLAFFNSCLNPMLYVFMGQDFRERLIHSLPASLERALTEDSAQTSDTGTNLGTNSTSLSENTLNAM

Tests used:
[1] = molecular target: β-arrestin-1 (BAR1) (mouse (endogenous in MPC-5 podocytes)) (UniProt Q8BWG8); experiment: co-IP; lysates of differentiated MPC-5 podocytes, untreated or treated for 24 h with 10 ng/mL recombinant suPAR, precipitated with an antibody against BAR1 or IgG; immunoblot for αV-integrin or β3-integrin
[2] = molecular target: mouse formyl peptide receptor-1 (Fpr1) (mouse (endogenous in MPC-5 podocytes)) (UniProt P33766); experiment: co-IP; lysates of untreated differentiated MPC-5 podocytes precipitated with an antibody against FPR1 (GeneTex) or rabbit IgG; immunoblot for β3-integrin

B1: β3-integrin (receptor, UniProt O54890 26-787)
chain: ESNICTTRGVNSCQQCLAVSPVCAWCSDETLSQGSPRCNLKENLLKDNCAPESIEFPVSEAQILEARPLSSKGSGSSAQITQVSPQRIALRLRPDDSKIFSLQVRQVEDYPVDIYYLMDLSFSMKDDLSSIQTLGTKLASQMRKLTSNLRIGFGAFVDKPVSPYMYISPPQAIKNPCYNMKNACLPMFGYKHVLTLTDQVSRFNEEVKKQSVSRNRDAPEGGFDAIMQATVCDEKIGWRNDASHLLVFTTDAKTHIALDGRLAGIVLPNDGHCHIGTDNHYSASTTMDYPSLGLMTEKLSQKNINLIFAVTENVVSLYQNYSELIPGTTVGVLSDDSSNVLQLIVDAYGKIRSKVELEVRDLPEELSLSFNATCLNNEVIPGLKSCVGLKIGDTVSFSIEAKVRGCPQEKEQSFTIKPVGFKDSLTVQVTFDCDCACQAFAQPSSPRCNNGNGTFECGVCRCDQGWLGSMCECSEEDYRPSQQEECSPKEGQPICSQRGECLCGQCVCHSSDFGKITGKYCECDDFSCVRYKGEMCSGHGQCNCGDCVCDSDWTGYYCNCTTRTDTCMSTNGLLCSGRGNCECGSCVCVQPGSYGDTCEKCPTCPDACSFKKECVECKKFNRGTLHEENTCSRYCRDDIEQVKELTDTGKNAVNCTYKNEDDCVVRFQYYEDTSGRAVLYVVEEPECPKGPDILVVLLSVMGAILLIGLATLLIWKLLITIHDRKEFAKFEEERARAKWDTANNPLYKEATSTFTNITYRGT
binding [1]: no binding | binding [2]: binds
